Test [1] has as its target T1, FLAG-tagged SMG5 1-853 (human) (UniProt Q9UPR3).
T1 sequence: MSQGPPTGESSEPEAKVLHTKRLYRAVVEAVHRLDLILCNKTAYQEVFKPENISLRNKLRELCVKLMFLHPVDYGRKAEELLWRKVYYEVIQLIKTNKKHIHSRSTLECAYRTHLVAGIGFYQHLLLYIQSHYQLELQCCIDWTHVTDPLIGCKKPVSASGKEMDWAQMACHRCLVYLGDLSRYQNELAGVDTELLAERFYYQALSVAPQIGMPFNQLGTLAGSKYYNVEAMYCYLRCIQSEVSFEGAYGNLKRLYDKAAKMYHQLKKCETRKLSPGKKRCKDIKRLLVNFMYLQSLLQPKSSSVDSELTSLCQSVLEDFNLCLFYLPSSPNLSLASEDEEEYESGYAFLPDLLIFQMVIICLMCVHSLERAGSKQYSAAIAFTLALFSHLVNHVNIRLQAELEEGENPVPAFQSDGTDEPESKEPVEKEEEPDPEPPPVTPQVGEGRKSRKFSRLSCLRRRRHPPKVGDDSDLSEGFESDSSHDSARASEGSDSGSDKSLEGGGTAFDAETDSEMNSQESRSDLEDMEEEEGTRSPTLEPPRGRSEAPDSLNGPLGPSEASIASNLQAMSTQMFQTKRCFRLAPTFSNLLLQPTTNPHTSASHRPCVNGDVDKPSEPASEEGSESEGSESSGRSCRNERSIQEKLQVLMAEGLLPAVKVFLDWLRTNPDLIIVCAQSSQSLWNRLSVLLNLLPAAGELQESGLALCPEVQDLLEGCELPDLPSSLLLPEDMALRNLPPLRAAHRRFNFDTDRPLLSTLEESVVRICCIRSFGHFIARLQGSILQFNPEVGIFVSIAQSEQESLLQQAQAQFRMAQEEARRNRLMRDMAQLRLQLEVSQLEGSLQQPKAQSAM
The test is described as follows: affinity purification with mass spectrometry; FLAG-tagged SMG5 WT or 1-853 or FLAG control in WT 293 cells, induced 72 h with doxycycline; FLAG IP, mild wash buffer, elution with FLAG peptide; label-free mass spectrometry.

Sequences of proteins named here, by UniProt entry; tags and fusion partners are left off.
UniProt Q86US8: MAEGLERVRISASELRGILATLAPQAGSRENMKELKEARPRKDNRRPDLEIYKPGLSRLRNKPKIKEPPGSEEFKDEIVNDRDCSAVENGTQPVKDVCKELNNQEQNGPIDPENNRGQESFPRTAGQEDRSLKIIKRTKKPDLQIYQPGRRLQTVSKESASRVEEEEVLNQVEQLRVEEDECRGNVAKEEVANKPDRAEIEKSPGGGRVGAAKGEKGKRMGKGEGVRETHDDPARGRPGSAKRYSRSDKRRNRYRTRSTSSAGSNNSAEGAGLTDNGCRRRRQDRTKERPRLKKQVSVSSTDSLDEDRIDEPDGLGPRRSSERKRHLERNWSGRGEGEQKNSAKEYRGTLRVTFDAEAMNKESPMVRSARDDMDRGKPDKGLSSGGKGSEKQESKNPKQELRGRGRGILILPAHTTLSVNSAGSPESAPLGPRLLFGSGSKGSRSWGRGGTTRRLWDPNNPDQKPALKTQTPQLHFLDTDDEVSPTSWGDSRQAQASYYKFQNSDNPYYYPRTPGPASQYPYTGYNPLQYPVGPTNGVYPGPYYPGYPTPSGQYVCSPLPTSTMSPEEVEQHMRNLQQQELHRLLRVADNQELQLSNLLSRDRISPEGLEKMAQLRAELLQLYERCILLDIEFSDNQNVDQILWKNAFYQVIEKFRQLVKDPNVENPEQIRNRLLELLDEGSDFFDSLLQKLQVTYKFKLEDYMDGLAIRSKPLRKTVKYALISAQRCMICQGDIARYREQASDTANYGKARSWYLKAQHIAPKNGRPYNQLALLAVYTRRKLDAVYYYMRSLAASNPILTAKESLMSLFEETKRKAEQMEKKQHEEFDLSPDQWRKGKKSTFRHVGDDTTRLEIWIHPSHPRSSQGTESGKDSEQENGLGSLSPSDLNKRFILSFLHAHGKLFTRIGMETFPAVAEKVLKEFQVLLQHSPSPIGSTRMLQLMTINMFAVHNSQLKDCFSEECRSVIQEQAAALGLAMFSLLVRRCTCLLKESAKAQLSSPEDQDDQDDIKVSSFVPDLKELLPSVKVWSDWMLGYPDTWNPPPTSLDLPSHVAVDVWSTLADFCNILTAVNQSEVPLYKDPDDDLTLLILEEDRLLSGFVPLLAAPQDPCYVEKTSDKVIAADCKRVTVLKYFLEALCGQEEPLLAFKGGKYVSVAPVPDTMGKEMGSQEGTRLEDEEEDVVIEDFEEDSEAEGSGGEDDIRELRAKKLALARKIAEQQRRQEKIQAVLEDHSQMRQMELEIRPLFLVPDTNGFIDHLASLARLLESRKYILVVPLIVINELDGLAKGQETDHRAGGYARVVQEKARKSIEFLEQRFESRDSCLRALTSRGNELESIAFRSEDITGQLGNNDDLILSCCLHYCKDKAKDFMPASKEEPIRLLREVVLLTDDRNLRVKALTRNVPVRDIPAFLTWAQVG
UniProt Q9NPJ4: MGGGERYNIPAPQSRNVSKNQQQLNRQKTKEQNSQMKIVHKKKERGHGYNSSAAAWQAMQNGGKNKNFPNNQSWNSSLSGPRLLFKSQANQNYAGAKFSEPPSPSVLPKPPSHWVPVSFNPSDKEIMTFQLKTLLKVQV
UniProt Q96Q15: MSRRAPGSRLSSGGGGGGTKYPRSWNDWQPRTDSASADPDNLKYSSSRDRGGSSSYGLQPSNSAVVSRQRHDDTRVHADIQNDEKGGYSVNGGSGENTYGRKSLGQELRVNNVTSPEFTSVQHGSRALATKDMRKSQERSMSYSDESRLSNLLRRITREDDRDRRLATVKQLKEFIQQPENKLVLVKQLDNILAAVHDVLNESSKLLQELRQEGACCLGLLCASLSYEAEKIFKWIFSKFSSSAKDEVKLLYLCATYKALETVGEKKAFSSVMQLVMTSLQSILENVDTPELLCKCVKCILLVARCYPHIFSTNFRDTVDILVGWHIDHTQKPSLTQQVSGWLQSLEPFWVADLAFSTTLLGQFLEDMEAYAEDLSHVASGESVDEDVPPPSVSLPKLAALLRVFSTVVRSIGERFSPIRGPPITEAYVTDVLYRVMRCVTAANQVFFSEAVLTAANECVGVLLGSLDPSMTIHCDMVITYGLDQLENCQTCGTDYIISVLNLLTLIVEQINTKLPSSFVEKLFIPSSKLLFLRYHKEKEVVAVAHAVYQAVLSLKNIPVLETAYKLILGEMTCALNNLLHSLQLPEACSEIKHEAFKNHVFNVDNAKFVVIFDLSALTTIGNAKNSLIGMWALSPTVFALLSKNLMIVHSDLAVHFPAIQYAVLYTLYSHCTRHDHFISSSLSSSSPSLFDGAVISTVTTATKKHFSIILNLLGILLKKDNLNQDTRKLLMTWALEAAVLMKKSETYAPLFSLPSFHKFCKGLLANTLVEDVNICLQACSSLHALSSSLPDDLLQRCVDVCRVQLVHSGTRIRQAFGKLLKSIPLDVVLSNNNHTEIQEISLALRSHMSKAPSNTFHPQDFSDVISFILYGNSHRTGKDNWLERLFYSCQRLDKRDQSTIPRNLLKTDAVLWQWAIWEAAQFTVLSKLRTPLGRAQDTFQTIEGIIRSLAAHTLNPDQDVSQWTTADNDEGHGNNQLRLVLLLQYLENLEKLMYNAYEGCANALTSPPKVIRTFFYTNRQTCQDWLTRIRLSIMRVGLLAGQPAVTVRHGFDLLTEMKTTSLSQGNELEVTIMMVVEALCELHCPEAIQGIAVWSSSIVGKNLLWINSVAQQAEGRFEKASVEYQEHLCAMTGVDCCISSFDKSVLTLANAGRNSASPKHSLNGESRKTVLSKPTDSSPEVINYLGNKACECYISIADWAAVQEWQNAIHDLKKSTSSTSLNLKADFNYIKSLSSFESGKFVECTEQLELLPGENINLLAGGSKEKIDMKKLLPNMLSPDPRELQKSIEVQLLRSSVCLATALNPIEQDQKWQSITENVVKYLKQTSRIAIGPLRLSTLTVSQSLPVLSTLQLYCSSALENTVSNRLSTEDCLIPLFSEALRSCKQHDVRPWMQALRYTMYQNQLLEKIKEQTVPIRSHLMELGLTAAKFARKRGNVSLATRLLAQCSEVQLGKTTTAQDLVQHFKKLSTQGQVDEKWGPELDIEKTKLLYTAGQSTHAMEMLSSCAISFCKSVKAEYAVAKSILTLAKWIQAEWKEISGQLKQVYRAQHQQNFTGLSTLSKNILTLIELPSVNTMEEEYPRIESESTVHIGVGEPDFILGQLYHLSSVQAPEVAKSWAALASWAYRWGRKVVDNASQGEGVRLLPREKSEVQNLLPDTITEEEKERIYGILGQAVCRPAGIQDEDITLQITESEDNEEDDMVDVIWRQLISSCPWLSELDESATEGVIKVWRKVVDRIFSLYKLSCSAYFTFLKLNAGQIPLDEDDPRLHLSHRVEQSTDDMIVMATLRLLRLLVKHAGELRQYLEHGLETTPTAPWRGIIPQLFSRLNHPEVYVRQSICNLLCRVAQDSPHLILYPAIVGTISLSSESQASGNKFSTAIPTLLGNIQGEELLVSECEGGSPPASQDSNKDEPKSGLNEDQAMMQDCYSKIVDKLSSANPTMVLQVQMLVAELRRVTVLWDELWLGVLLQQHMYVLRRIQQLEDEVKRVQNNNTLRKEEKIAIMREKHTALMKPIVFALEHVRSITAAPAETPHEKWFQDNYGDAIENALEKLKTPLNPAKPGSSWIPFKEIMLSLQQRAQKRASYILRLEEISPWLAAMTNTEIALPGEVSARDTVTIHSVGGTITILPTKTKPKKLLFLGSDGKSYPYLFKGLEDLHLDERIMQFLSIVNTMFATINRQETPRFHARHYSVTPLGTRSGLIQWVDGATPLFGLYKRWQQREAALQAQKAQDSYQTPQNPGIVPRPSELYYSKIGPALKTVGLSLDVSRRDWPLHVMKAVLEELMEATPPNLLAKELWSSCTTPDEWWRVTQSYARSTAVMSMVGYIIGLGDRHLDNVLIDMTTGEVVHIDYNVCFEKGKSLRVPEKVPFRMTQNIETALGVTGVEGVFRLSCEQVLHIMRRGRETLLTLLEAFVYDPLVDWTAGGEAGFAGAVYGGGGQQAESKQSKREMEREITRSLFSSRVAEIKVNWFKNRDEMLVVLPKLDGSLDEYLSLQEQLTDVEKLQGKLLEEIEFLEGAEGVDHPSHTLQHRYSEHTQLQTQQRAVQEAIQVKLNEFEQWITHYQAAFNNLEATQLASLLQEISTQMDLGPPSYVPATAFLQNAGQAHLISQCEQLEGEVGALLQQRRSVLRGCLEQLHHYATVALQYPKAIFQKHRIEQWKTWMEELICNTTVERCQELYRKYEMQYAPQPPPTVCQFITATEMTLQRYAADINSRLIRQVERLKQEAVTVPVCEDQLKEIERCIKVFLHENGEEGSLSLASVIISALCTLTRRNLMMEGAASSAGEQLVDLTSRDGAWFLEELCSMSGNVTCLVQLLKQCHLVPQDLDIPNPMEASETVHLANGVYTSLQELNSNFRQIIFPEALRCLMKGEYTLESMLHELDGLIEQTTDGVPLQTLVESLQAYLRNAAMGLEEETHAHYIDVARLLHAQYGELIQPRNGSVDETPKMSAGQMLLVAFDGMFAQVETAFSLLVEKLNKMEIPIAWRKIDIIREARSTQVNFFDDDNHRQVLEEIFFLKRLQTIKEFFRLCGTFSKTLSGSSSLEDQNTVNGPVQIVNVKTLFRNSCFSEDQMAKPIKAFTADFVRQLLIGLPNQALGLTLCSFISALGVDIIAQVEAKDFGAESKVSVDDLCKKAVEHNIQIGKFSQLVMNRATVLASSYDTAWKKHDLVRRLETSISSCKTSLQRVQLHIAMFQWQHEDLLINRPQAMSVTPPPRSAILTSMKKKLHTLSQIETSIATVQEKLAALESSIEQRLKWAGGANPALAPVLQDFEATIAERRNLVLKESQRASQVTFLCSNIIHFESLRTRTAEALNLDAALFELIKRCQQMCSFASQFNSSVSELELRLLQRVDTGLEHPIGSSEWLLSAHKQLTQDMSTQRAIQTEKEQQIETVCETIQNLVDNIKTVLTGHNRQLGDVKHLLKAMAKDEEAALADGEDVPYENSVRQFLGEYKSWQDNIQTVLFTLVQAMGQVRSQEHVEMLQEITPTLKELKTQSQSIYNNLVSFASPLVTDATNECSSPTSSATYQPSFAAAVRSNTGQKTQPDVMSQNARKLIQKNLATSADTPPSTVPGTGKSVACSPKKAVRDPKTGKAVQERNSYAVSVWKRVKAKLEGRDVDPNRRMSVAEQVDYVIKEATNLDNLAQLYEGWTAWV
UniProt O95793: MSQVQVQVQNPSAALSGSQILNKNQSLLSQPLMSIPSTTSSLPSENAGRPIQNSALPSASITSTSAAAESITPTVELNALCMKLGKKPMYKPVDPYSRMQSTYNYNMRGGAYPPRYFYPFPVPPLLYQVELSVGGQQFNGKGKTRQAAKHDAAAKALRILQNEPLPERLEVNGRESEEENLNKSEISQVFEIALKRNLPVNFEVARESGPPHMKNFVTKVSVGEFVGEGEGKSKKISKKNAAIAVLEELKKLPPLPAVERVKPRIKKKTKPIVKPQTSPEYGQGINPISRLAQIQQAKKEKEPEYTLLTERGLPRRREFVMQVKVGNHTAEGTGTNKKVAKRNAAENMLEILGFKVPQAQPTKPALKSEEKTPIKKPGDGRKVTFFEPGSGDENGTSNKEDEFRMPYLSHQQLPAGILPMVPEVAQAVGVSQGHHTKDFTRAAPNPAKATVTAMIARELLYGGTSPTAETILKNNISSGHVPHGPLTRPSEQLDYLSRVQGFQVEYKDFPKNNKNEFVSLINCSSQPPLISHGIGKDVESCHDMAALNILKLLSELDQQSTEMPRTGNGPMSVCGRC

Test [2] concerns the target T2, FLAG-tagged SMG5 WT (human) (UniProt Q9UPR3).
T2 sequence: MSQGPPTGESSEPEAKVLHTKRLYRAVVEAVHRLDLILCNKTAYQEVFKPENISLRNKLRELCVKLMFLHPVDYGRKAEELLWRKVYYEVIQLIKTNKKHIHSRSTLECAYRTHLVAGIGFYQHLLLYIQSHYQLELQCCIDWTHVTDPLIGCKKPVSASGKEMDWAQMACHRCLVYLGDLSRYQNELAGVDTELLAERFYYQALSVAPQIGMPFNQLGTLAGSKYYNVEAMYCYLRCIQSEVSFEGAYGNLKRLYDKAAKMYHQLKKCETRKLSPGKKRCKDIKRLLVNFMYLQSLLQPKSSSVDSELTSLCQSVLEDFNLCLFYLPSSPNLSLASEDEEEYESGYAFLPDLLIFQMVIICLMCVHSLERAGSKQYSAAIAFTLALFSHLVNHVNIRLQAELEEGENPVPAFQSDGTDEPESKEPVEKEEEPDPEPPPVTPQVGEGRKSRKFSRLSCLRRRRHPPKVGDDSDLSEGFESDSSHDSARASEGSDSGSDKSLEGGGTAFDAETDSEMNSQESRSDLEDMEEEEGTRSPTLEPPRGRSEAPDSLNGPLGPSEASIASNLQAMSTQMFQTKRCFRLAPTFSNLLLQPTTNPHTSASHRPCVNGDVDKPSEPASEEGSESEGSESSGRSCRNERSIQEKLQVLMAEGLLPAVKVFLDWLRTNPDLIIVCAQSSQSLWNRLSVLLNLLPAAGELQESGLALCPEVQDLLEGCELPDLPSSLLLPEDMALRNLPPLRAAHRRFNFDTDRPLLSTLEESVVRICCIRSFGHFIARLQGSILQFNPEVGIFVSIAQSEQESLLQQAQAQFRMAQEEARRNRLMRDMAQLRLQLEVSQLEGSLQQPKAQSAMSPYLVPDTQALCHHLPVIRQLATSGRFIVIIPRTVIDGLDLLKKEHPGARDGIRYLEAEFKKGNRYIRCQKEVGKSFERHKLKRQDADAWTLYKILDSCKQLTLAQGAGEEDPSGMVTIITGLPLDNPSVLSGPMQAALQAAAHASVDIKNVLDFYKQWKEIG
The description is as above.

Test [3] has as its target T3, FLAG-TurboID-UPF1 (UniProt Q92900).
T3 sequence: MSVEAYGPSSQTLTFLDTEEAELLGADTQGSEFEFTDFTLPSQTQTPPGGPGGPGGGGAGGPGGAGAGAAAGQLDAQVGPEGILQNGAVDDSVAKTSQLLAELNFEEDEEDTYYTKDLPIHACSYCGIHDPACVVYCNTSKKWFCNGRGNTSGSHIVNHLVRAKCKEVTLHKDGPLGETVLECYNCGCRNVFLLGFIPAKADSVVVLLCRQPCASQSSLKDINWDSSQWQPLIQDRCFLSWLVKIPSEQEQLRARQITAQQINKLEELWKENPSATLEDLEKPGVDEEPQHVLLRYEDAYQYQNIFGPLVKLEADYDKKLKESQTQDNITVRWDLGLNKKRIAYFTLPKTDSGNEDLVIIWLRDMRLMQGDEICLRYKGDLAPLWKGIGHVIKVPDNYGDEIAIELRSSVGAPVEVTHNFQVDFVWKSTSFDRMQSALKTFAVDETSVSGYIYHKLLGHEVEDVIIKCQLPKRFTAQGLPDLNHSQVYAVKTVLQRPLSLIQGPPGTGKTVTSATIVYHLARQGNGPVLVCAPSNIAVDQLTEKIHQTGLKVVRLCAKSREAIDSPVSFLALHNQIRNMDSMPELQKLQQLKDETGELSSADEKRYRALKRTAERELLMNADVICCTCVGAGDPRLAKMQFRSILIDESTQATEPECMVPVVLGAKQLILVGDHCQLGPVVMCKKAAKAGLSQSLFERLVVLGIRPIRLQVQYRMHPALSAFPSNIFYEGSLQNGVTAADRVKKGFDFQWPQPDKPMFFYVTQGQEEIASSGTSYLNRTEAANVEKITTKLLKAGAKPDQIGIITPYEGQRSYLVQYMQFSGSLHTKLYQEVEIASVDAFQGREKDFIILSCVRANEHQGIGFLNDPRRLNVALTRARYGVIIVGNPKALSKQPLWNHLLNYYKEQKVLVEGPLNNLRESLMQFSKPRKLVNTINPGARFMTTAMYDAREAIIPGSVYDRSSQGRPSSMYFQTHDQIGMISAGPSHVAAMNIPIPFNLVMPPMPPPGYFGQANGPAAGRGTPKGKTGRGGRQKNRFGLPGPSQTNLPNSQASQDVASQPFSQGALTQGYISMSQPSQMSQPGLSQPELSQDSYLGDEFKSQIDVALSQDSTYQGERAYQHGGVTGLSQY
The test is described as follows: proximity labelling; FLAG-TurboID-UPF1 against FLAG-TurboID control in WT cells; 50 µM biotin for 15 min; streptavidin beads; label-free mass spectrometry.

Test [4] deals with T3, FLAG-TurboID-UPF1. The test is described as follows: proximity labelling; FLAG-TurboID-UPF1 against FLAG-TurboID control in SMG7 KO cells with control or SMG5 KD; 50 µM biotin for 15 min; streptavidin beads; label-free mass spectrometry.

This passage reports binding results from PMC8233366.

These are yes or no findings as the source states them, for the method shown. Binding seen in cells or lysates may run through a third protein. These calls come from enrichment with a bait or labelling near it, and not all partners need be listed. For some assays here: No binding means not detected with the bait. Sequences can lack the tags named with a protein.

Regarding “SMG6 (endogenous) (from UniProt Q86US8 1-1419)”, the binding result in test [1] and in test [2] was “no binding” throughout.
For the molecule “PNRC2 (endogenous) (from UniProt Q9NPJ4 1-139)”, the binding entry in test [1] is recorded as “no binding”.
Consider “SMG1 (endogenous) (from UniProt Q96Q15 1-3661)”, for which the figures for the binding result in the test with FLAG-TurboID-UPF1 [3] and in the test with FLAG-TurboID-UPF1 [4] were “no binding (only in WT cells)” and “binds”, respectively.
On to “STAU1 (endogenous) (from UniProt O95793 1-577)”, for which the binding result in the test with FLAG-TurboID-UPF1 [3] is reported as “binds”.

B1: STAU2 (endogenous) (protein, UniProt Q9NUL3 1-570)
chain: MANPKEKTAMCLVNELARFNRVQPQYKLLNERGPAHSKMFSVQLSLGEQTWESEGSSIKKAQQAVANKALTESTLPKPVQKPPKSNVNNNPGSITPTVELNGLAMKRGEPAIYRPLDPKPFPNYRANYNFRGMYNQRYHCPVPKIFYVQLTVGNNEFFGEGKTRQAARHNAAMKALQALQNEPIPERSPQNGESGKDVDDDKDANKSEISLVFEIALKRNMPVSFEVIKESGPPHMKSFVTRVSVGEFSAEGEGNSKKLSKKRAATTVLQELKKLPPLPVVEKPKLFFKKRPKTIVKAGPEYGQGMNPISRLAQIQQAKKEKEPDYVLLSERGMPRRREFVMQVKVGNEVATGTGPNKKIAKKNAAEAMLLQLGYKASTNLQDQLEKTGENKGWSGPKPGFPEPTNNTPKGILHLSPDVYQEMEASRHKVISGTTLGYLSPKDMNQPSSSFFSISPTSNSSATIARELLMNGTSSTAEAIGLKGSSPTPPCSPVQPSKQLEYLARIQGFQAALSALKQFSEQGLDPIDGAMNIEKGSLEKQAKHLREKADNNQAPPGSIAQDCKKSNSAV
Consider B1, for which the binding result in the test with FLAG-TurboID-UPF1 [3] was “binds”.

B2: SMG8 (endogenous) (protein, UniProt Q8ND04 1-991)
chain: MAGPVSLRDLLMGASAWMGSESPGGSPTEGGGSAAGGPEPPWREDEICVVGIFGKTALRLNSEKFSLVNTVCDRQVFPLFRHQDPGDPGPGIRTEAGAVGEAGGAEDPGAAAGGSVRGSGAVAEGNRTEAGSQDYSLLQAYYSQESKVLYLLLTSICDNSQLLRACRALQSGEAGGGLSLPHAEAHEFWKHQEKLQCLSLLYLFSVCHILLLVHPTCSFDITYDRVFRALDGLRQKVLPLLKTAIKDCPVGKDWKLNCRPCPPRLLFLFQLNGALKVEPPRNQDPAHPDKPKKHSPKRRLQHALEDQIYRIFRKSRVLTNQSINCLFTVPANQAFVYIVPGSQEEDPVGMLLDQLRSHCTVKDPESLLVPAPLSGPRRYQVMRQHSRQQLSFHIDSSSSSSSGQLVDFTLREFLWQHVELVLSKKGFDDSVGRNPQPSHFELPTYQKWISAASKLYEVAIDGKEEDLGSPTGELTSKILSSIKVLEGFLDIDTKFSENRCQKALPMAHSAYQSNLPHNYTMTVHKNQLAQALRVYSQHARGPAFHKYAMQLHEDCYKFWSNGHQLCEERSLTDQHCVHKFHSLPKSGEKPEADRNPPVLYHNSRARSTGACNCGRKQAPRDDPFDIKAANYDFYQLLEEKCCGKLDHINFPVFEPSTPDPAPAKNESSPAPPDSDADKLKEKEPQTQGESTSLSLALSLGQSTDSLGTYPADPQAGGDNPEVHGQVEVKTEKRPNFVDRQASTVEYLPGMLHSNCPKGLLPKFSSWSLVKLGPAKSYNFHTGLDQQGFIPGTNYLMPWDIVIRTRAEDEGDLDTNSWPAPNKAIPGKRSAVVMGRGRRRDDIARAFVGFEYEDSRGRRFMCSGPDKVMKVMGSGPKESALKALNSDMPLYILSSSQGRGLKPHYAQLMRLFVVVPDAPLQIILMPQVQPGPPPCPVFYPEKQEITLPPDGLWVLRFPYAYVTERGPCFPPKENVQLMSYKVLRGVLKAVTQ
Consider B2, for which the binding entry was “no binding (only in WT cells)” in the test with FLAG-TurboID-UPF1 [3] and “binds” with FLAG-TurboID-UPF1 [4].

B3: SMG9 (endogenous) (protein, UniProt Q9H0W8 1-520)
chain: MSESGHSQPGLYGIERRRRWKEPGSGGPQNLSGPGGRERDYIAPWERERRDASEETSTSVMQKTPIILSKPPAERSKQPPPPTAPAAPPAPAPLEKPIVLMKPREEGKGPVAVTGASTPEGTAPPPPAAPAPPKGEKEGQRPTQPVYQIQNRGMGTAAPAAMDPVVGQAKLLPPERMKHSIKLVDDQMNWCDSAIEYLLDQTDVLVVGVLGLQGTGKSMVMSLLSANTPEEDQRTYVFRAQSAEMKERGGNQTSGIDFFITQERIVFLDTQPILSPSILDHLINNDRKLPPEYNLPHTYVEMQSLQIAAFLFTVCHVVIVVQDWFTDLSLYRFLQTAEMVKPSTPSPSHESSSSSGSDEGTEYYPHLVFLQNKARREDFCPRKLRQMHLMIDQLMAHSHLRYKGTLSMLQCNVFPGLPPDFLDSEVNLFLVPFMDSEAESENPPRAGPGSSPLFSLLPGYRGHPSFQSLVSKLRSQVMSMARPQLSHTILTEKNWFHYAARIWDGVRKSSALAEYSRLLA
Consider B3, for which the binding entry is “no binding (only in WT cells)” with FLAG-TurboID-UPF1 [3] and “binds” with FLAG-TurboID-UPF1 [4].
